Results are given in words; binding and its absence hold for the method and conditions named. In cells and extracts the contact can be indirect. A yes stands for co-enrichment or nearness to the bait. Other partners may have been found.

Sequences of proteins named here, by UniProt entry; tags and fusion partners are left off.
UniProt Q15397: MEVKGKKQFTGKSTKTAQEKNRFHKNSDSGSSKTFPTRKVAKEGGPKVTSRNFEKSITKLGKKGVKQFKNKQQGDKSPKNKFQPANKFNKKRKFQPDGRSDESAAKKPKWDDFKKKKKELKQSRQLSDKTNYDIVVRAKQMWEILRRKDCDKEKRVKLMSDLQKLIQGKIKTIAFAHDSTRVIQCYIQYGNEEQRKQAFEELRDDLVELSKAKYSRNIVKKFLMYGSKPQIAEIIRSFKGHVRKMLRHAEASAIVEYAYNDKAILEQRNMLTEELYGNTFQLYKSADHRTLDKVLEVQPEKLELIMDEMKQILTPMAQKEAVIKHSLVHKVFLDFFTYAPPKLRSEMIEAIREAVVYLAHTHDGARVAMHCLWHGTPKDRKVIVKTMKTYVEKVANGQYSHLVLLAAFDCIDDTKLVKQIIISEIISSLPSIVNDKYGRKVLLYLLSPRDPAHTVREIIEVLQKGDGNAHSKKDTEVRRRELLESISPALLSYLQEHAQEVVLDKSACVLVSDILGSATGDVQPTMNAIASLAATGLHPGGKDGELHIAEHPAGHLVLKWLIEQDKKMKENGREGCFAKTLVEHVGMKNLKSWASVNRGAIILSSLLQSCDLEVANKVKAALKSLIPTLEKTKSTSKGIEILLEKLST
UniProt P06748: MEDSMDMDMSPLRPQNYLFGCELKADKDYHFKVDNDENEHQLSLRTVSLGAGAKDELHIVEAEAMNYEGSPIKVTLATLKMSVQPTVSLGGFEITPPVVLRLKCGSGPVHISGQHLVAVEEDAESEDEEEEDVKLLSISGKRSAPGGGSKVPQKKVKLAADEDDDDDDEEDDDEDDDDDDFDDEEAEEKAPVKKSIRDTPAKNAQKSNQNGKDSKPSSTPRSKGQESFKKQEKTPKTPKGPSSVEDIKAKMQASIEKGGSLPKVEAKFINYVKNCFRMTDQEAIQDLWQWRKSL

Binding data for 1 substance are collected here from doi:10.1101/281857.

This assay deals with Puf-A (bait of the immunoprecipitation for mass spectrometry) (human) (UniProt Q15397). Briefly: affinity purification with mass spectrometry.

“endogenous NPM1 (from UniProt P06748 1-294)”: the binding result is “binds”.
